Measured data: PubChem BioAssay AID720505 (Drosophila RNAi Screening Center, 2013)

Screen: 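Knock-downs that reduce calcium influx once internal stores are emptied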 (primary screen)
System: Drosophila S2R+ cells
Reagents: long dsRNA against Drosophila genes
Challenge: thapsigargin (2 µM) in calcium-free buffer to empty internal stores, then 2 mM calcium added back
Measurement: 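Fluo-4 signal in 384-well plates read on a FLIPR after thapsigargin (2 µM, calcium-free) store depletion and 2 mM calcium add-back; unnormalised mean endpoint per well; screen run twice, selected wells retested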
Scale: calcium signal and retest calcium signal: higher = more calcium entry after store depletion
Hit rule: 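About 1500 genes called as lowering calcium entry, by varying amounts, judged against per-plate control wells with STIM1 as positive and Rho1 as negative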
Meaning of the calls: active = called as lowering calcium entry; inactive = not called
In all, the deposit lists about 20,000 reagents; this is an unselected part of those that have a named target and a result. In the full data, about 2,100 (10%) are marked active. 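Raw plate signals without normalisation; calls rest on control-based scores that were not deposited; replicate 2 separates called from uncalled poorly.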 A number with no mark means an inactive call. Reagents against one gene are numbered here. A plus sign joins genes that one reagent is predicted to hit. Not stated in the record: the amount of reagent, the time to read-out.

target gene | reagent no. | calcium signal, replicate 1 | calcium signal, replicate 2 | retest calcium signal, replicate 1 | retest calcium signal, replicate 2
pns | 1 | 98.4 | 138 | – | –
Mst84B | 1 | 118 | 168 | – | –
CG2701 | 1 | 117 | 127 | – | –
LManII | 1 | 92.2 | 126 | – | –
Eato | 1 | 79 | 118 | – | –
Eato | 2 | 159 | 119 | – | –
Myo61F | 1 | 82.7 | 173 | – | –
CG15927 | 1 | 51.9 (active) | 104 | – | –
asRNA:Eig63F-2 + Eip63F-1 | 1 | 180 | 84.2 | – | –
CG32085 | 1 | 99.1 | 101 | – | –
CG32085 | 2 | 99.1 | 96.7 | – | –
CG32085 | 3 | 86.8 | 97.1 | – | –
Arr2 | 1 | 83.9 | 86.1 | – | –
sif | 1 | 97.7 | 87.4 | – | –
sif | 2 | 116 | 236 | – | –
sif | 3 | 98.2 | 79.4 | – | –
CG4709 | 1 | 85.7 | 122 | – | –
Jon99Cii | 1 | 179 | 151 | – | –
Jon99Cii | 2 | 107 | 172 | – | –
AstA-R1 | 1 | 67.6 (active) | 179 | – | –
Ir76b | 1 | 112 | 93.9 | – | –
CG5087 | 1 | 133 | 82.3 | – | –
CG31265 | 1 | 163 | 176 | – | –
Cpr35B | 1 | 119 | 89.3 | 96.7 | 134
Cpr35B | 2 | 84.6 | 86.2 | – | –
CG13245 | 1 | 105 | 88.9 | – | –
CG16825 | 1 | 91.6 | 118 | – | –
Def | 1 | 102 | 79.6 | – | –
Acsx1R | 1 | 141 | 121 | – | –
Prx4 | 1 | 71.7 | 72.3 | – | –
Ssadh | 1 | 97.2 | 93.9 | – | –
CG9849 | 1 | 161 | 194 | – | –
mRpL3 | 1 | 80 | 149 | – | –
CG9641 | 1 | 183 | 206 | – | –
CG13045 | 1 | 115 | 174 | – | –
Dh31-R | 1 | 105 | 140 | – | –
Dh31-R | 2 | 117 | 210 | – | –
daw | 1 | 99 | 183 | – | –
CG42809 | 1 | 106 | 92 | – | –
CG32445 | 1 | 88.4 | 163 | – | –
OS9 | 1 | 132 | 118 | – | –
CG5934 | 1 | 157 | 144 | – | –
Myo31DF | 1 | 85.1 | 113 | – | –
Myo31DF | 2 | 97.1 | 179 | – | –
Cyt-c1L | 1 | 104 | 81.1 | – | –
Cyt-c1L | 2 | 92.9 | 223 | – | –
CG16717 | 1 | 106 | 116 | – | –
CG13962 | 1 | 124 | 104 | – | –
mthl1 | 1 | 93.1 | 116 | – | –
CG31706 | 1 | 99.8 | 165 | – | –
CG1958 | 1 | 212 | 105 | – | –
CG18568 | 1 | 184 | 169 | – | –
Or43b | 1 | 105 | 128 | – | –
UQCR-14L | 1 | 169 | 138 | – | –
UQCR-14L | 2 | 99.8 | 154 | – | –
Myb | 1 | 182 | 105 | – | –
CG32071 | 1 | 106 | 231 | – | –
CG32052 | 1 | 98.3 | 90.7 | – | –
CG4069 | 1 | 82.1 | 124 | – | –
CG4017 | 1 | 179 | 129 | – | –
htt | 1 | 144 | 179 | – | –
spo | 1 | 126 | 78.6 | – | –
E(spl)mbeta-HLH | 1 | 91.8 | 105 | – | –
CG15253 | 1 | 95.7 | 140 | – | –
CG13059 | 1 | 87.6 | 144 | – | –
Iml1 | 1 | 186 | 173 | – | –
teq | 1 | 96.5 | 79.4 | – | –
teq | 2 | 86.5 | 80.7 | – | –
teq | 3 | 86.4 | 101 | – | –
vex | 1 | 102 | 98 | – | –
vex | 2 | 96.1 | 129 | – | –
vex | 3 | 64.8 | 116 | – | –
MsR2 | 1 | 111 | 84 | – | –
MsR2 | 2 | 78.2 | 89.4 | – | –
MsR2 | 3 | 161 | 188 | – | –
CG15515 | 1 | 190 | 195 | – | –
mesh | 1 | 117 | 121 | 174 | 170
mesh | 2 | 135 | 140 | – | –
mesh | 3 | 205 | 145 | – | –
LysP | 1 | 82.5 | 124 | – | –
swa | 1 | 94.4 | 99.6 | – | –
Pbp45 | 1 | 118 | 149 | – | –
rdgB | 1 | 124 | 193 | – | –

Part of the list above, set out differently.
CG16825 → calcium signal, replicate 1: 91.6; calcium signal, replicate 2: 118
Def → calcium signal, replicate 1: 102; calcium signal, replicate 2: 79.6
Acsx1R → calcium signal, replicate 1: 141; calcium signal, replicate 2: 121
Prx4 → calcium signal, replicate 1: 71.7; calcium signal, replicate 2: 72.3
Ssadh → calcium signal, replicate 1: 97.2; calcium signal, replicate 2: 93.9
CG9849 → calcium signal, replicate 1: 161; calcium signal, replicate 2: 194
mRpL3 → calcium signal, replicate 1: 80; calcium signal, replicate 2: 149
CG9641 → calcium signal, replicate 1: 183; calcium signal, replicate 2: 206
CG13045 → calcium signal, replicate 1: 115; calcium signal, replicate 2: 174
Dh31-R #1 → calcium signal, replicate 1: 105; calcium signal, replicate 2: 140
Dh31-R #2 → calcium signal, replicate 1: 117; calcium signal, replicate 2: 210
daw → calcium signal, replicate 1: 99; calcium signal, replicate 2: 183
